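A cell line overexpressing EP4 prostanoid receptors, stimulated with a low (about EC15) PGE2 dose; cAMP read by HTRF FRET after a short room-temperature incubation. Compounds were tested at 20 µM final. A low (about EC15) PGE2 dose was present. Percent cAMP induction as a fraction of the 1 µM PGE2 response, averaged over three replicates; a higher value means more cAMP.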

Values are in %. Common to all entries: measured here: EP4 receptor counter-screen. Part of the compounds only, not a random draw; the main read-out is not listed here.

structure | condition | cAMP induction (%)
CSc1ccccc1NC(=O)CN(C)Cc1cccc(Cl)c1 | percent of 1 uM PGE2 response; plus low (about EC15) PGE2 agonist | -3.473
O=C(c1cc2sccc2n1Cc1ccc(F)cc1)N1CCCc2ccccc21 | percent of 1 uM PGE2 response; plus low (about EC15) PGE2 agonist | -4.723
Cc1ccccc1Cn1c(-c2cncs2)nc2ccccc21 | percent of 1 uM PGE2 response; plus low (about EC15) PGE2 agonist | -11.01
C=CCSc1nccc(-c2cc(Cl)sc2Cl)n1 | percent of 1 uM PGE2 response; plus low (about EC15) PGE2 agonist | 17.05
COC(=O)c1cc(-c2ccc3c(c2)OCO3)nc2ccccc12 | percent of 1 uM PGE2 response; plus low (about EC15) PGE2 agonist | -4.157
COc1ccc(C(=O)Nc2cc(C)nn2-c2nc3ccccc3[nH]2)c(OC)c1 | percent of 1 uM PGE2 response; plus low (about EC15) PGE2 agonist | -17.81
N#Cc1sc2nc(C3CC3)cc(-c3ccccc3)c2c1N | percent of 1 uM PGE2 response; plus low (about EC15) PGE2 agonist | 16.52
Fc1ccc(Oc2nc(-c3ccccc3)nnc2C(F)(F)F)cc1 | percent of 1 uM PGE2 response; plus low (about EC15) PGE2 agonist | 13.51
Cc1ccc(S(=O)(=O)n2c3ccc(F)cc3c3nc(C)sc32)cc1 | percent of 1 uM PGE2 response; plus low (about EC15) PGE2 agonist | 2.773
CC(C)(C)C1CCC(OC(=O)c2ccncc2)CC1 (configuration not stated) | percent of 1 uM PGE2 response; plus low (about EC15) PGE2 agonist | 11.87
C=CCC(NCc1ccccc1)c1ccc(Cl)cc1 (configuration not stated) | percent of 1 uM PGE2 response; plus low (about EC15) PGE2 agonist | 9.27
Cc1ccc(-n2c(=S)[nH]c3c(oc4ccccc43)c2=O)cc1C | percent of 1 uM PGE2 response; plus low (about EC15) PGE2 agonist | 64.59
Cc1ccc(-c2nc(P(=O)(c3ccccc3)c3ccccc3)c(N3CCOCC3)o2)cc1 | percent of 1 uM PGE2 response; plus low (about EC15) PGE2 agonist | 5.003
CCOC(=O)c1c(NC(=O)CC(C)C)sc(C(C)=O)c1C | percent of 1 uM PGE2 response; plus low (about EC15) PGE2 agonist | -1.853
COC(=O)CSc1nc(-c2ccccc2)nc2ccccc12 | percent of 1 uM PGE2 response; plus low (about EC15) PGE2 agonist | 4.213
OC(Cc1ccccc1)(Cc1ccccc1)c1ccccc1 | percent of 1 uM PGE2 response; plus low (about EC15) PGE2 agonist | 8.167
COc1ccc2c(COC(=O)c3n[nH]c4ccccc34)cc(=O)oc2c1 | percent of 1 uM PGE2 response; plus low (about EC15) PGE2 agonist | 6.163
CC(C)CCn1c(=O)c2ccccc2c2ccccc2c1=O | percent of 1 uM PGE2 response; plus low (about EC15) PGE2 agonist | 5.227
Cc1sc(NC(=O)c2cccs2)c(C(=O)OC(C)C)c1C | percent of 1 uM PGE2 response; plus low (about EC15) PGE2 agonist | -3.14
CCn1c2c(c3cc(OCC(C)C)ccc31)CCCC2=O | percent of 1 uM PGE2 response; plus low (about EC15) PGE2 agonist | 5.927
O=C(Nc1cccc(Cl)c1N1CCCCC1)c1ccc2c(c1)OCCO2 | percent of 1 uM PGE2 response; plus low (about EC15) PGE2 agonist | -2.473
O=C(O)c1cc2cc(F)ccc2[nH]1 | percent of 1 uM PGE2 response; plus low (about EC15) PGE2 agonist | 13.95
Cc1cc(-c2ccccc2)nc2cc(C(=O)N(Cc3ccccc3)Cc3ccccc3)nn12 | percent of 1 uM PGE2 response; plus low (about EC15) PGE2 agonist | -5.12

The last 2 entries again:

{"structure": "O=C(O)c1cc2cc(F)ccc2[nH]1", "condition": "percent of 1 uM PGE2 response; plus low (about EC15) PGE2 agonist", "cAMP induction (%)": "13.95"}
{"structure": "Cc1cc(-c2ccccc2)nc2cc(C(=O)N(Cc3ccccc3)Cc3ccccc3)nn12", "condition": "percent of 1 uM PGE2 response; plus low (about EC15) PGE2 agonist", "cAMP induction (%)": "-5.12"}

The results are deposited in PubChem (AID1080; Emory University Molecular Libraries Screening Center, 2008).